Reference: PubChem BioAssay AID652243 (Drosophila RNAi Screening Center, 2013)
Assay: 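Knock-downs that decrease or increase androgen receptor reporter signal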 (primary screen). System: Drosophila S2R+ cells. Reagent: long dsRNA against Drosophila genes. Duration: 72 h (48 h, then 24 h hormone). Treatment: synthetic androgen R1881 at 10 nM for 24 h. Read-out: 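Per-well raw luminescence of the androgen-driven firefly reporter and of the Renilla control, two replicates each, without normalisation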. Reading the numbers: firefly reporter light: higher = more light from androgen-responsive reporter; Renilla control light: higher = more constitutive control signal (cell number, transfection). Active means: 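Across duplicate plates, a knock-down whose log firefly/Renilla ratio shifted a set fold down or up from the GFP/LacZ control mean was a hit; the downward cut appears as both 1.5 and 3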. Meaning of the calls: active = hit: reporter lowered or raised; inactive = no hit.
The screen tested about 24,000 reagents; shown is an unselected part of those with a known target gene and a result. In the full data, 246 (1%) were called active. 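Plates not normalised; calls are printed but the firefly/Renilla ratio behind them is not deposited; fold cut for lowering reported inconsistently.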 The raw values are shown without normalisation. A plus sign joins genes that one reagent is predicted to hit. Not given: the amount of reagent.

| predicted target | amplicon | firefly reporter light, replicate 1 | firefly reporter light, replicate 2 | Renilla control light, replicate 1 | Renilla control light, replicate 2 | call |
| --- | --- | --- | --- | --- | --- | --- |
| mtm (myotubularin) | DRSC03576 | 3.92e5 | 5.04e5 | 9.37e5 | 1.25e6 | inactive |
| mtm (myotubularin) | DRSC36764 | – | – | – | – | inactive |
| mtm (myotubularin) | DRSC36765 | – | – | – | – | inactive |
| Gadd45 (Growth arrest and DNA damage-inducible 45) | DRSC06033 | 3.12e5 | 2.21e5 | 1.66e6 | 1.61e6 | inactive |
| CG13070 | DRSC09953 | 2.55e5 | 2.04e5 | 2.52e6 | 1.99e6 | inactive |
| Atet (ABC transporter expressed in trachea) | DRSC00263 | 92503 | 94009 | 8.47e5 | 6.10e5 | inactive |
| Nepl11 (Neprilysin-like 11) | DRSC12333 | 3.67e5 | 3.20e5 | 2.59e6 | 2.60e6 | inactive |
| Nnf1b | DRSC22080 | 6.74e5 | 6.72e5 | 2.30e6 | 2.80e6 | inactive |
| Nnf1b | DRSC25920 | 4.62e5 | 3.57e5 | 1.15e6 | 9.90e5 | inactive |
| Sap47 (Synapse-associated protein 47kD) | DRSC16850 | 1.48e5 | 48609 | 5.06e5 | 5.05e5 | inactive |
| Sap47 (Synapse-associated protein 47kD) | DRSC27162 | 2.08e5 | 1.87e5 | 4.14e5 | 5.01e5 | inactive |
| cas (castor) | DRSC12373 | 49791 | 86520 | 1.56e6 | 1.83e6 | inactive |
| cas (castor) | DRSC24858 | 6.91e5 | 1.02e6 | 6.53e5 | 6.70e5 | inactive |
| cas (castor) | DRSC38957 | 7.41e5 | 8.52e5 | 1.64e6 | 1.40e6 | inactive |
| CG42307 + mus312 | DRSC11008 | 2.10e5 | 2.49e5 | 2.84e6 | 3.16e6 | inactive |
| CG42307 + mus312 | DRSC27742 | 4.18e5 | 4.36e5 | 4.81e5 | 5.50e5 | inactive |
| Nuf2 | DRSC03123 | 7.73e5 | 1.01e6 | 2.79e6 | 2.90e6 | inactive |
| CG34133 | DRSC16319 | 45437 | 30275 | 5.98e5 | 4.05e5 | inactive |
| CG34133 | DRSC22239 | 5.78e5 | 5.82e5 | 1.87e6 | 2.13e6 | inactive |
| CG34133 | DRSC25658 | 6.54e5 | 8.74e5 | 9.40e5 | 8.56e5 | inactive |
| CG34133 | DRSC29408 | 3.67e5 | 3.51e5 | 6.70e5 | 6.70e5 | inactive |
| Hsp27 (Heat shock protein 27) | DRSC11190 | 1.09e6 | 3.26e5 | 1.00e6 | 3.56e5 | inactive |
| Hsp27 (Heat shock protein 27) | DRSC26877 | 2.80e5 | 2.94e5 | 4.08e5 | 4.31e5 | inactive |
| GNBP2 (Gram-negative bacteria binding protein 2) | DRSC10404 | 38291 | 42088 | 3.32e5 | 3.10e5 | inactive |
| Rrp46 | DRSC15537 | 1.41e5 | 1.21e5 | 2.54e6 | 1.73e6 | inactive |
| TTLL15 (Tubulin tyrosine ligase-like 15) | DRSC15543 | 1.23e5 | 1.79e5 | 2.03e6 | 2.31e6 | inactive |
| norpA (no receptor potential A) | DRSC18806 | 1.07e5 | 81931 | 9.09e5 | 5.89e5 | inactive |
| CG2790 | DRSC04045 | 7.33e5 | 7.21e5 | 1.07e6 | 1.17e6 | inactive |
| CG2790 | DRSC25882 | 4.02e5 | 3.74e5 | 1.18e6 | 1.03e6 | inactive |
| CG2790 | DRSC38986 | 6.08e5 | 7.39e5 | 1.59e6 | 1.95e6 | inactive |
| CG7860 | DRSC20060 | 45639 | 72133 | 5.48e5 | 5.20e5 | inactive |
| lectin-46Cb | DRSC06611 | 3.09e5 | 2.69e5 | 1.95e6 | 1.66e6 | inactive |
| lectin-46Cb | DRSC25309 | 4.38e5 | 3.99e5 | 5.91e5 | 6.37e5 | inactive |
| CG34178 + CG34177 | DRSC00351 | 1.44e5 | 1.36e5 | 7.19e5 | 7.78e5 | inactive |
| Hsc70-2 (Heat shock protein 70 cognate 2) | DRSC16710 | 1.11e5 | 86889 | 1.46e6 | 1.21e6 | inactive |
| Hsc70-2 (Heat shock protein 70 cognate 2) | DRSC28457 | 1.82e5 | 2.48e5 | 3.48e5 | 7.58e5 | inactive |
| CG2533 | DRSC19855 | 4.35e5 | 4.45e5 | 4.77e6 | 4.16e6 | inactive |
| CG2533 | DRSC28777 | 6.55e5 | 3.89e5 | 1.54e6 | 1.05e6 | inactive |
| Smvt (Sodium-dependent multivitamin transporter) | DRSC15426 | 2.75e5 | 3.00e5 | 2.82e6 | 3.84e6 | inactive |
| mEFTu1 (mitochondrial translation elongation factor Tu 1) | DRSC06959 | 7.93e5 | 8.37e5 | 1.23e6 | 1.47e6 | inactive |
| mEFTu1 (mitochondrial translation elongation factor Tu 1) | DRSC29468 | 3.36e5 | 4.10e5 | 1.31e6 | 1.31e6 | inactive |
| lncRNA:CR32385 (long non-coding RNA:CR32385) | DRSC22966 | 5.82e5 | 9.62e5 | 1.26e6 | 1.96e6 | inactive |
| Cpr67Fb (Cuticular protein 67Fb) | DRSC10314 | 1.61e5 | 1.62e5 | 1.52e6 | 1.50e6 | inactive |
| Cpr67Fb (Cuticular protein 67Fb) | DRSC29696 | 5.07e5 | 2.97e5 | 1.50e6 | 1.20e6 | inactive |
| CG12056 | DRSC17796 | 96567 | 1.03e5 | 7.49e5 | 6.02e5 | inactive |
| CG30122 | DRSC06935 | 84549 | 1.33e5 | 1.66e6 | 1.50e6 | inactive |
| CG7300 | DRSC03044 | 1.25e6 | 1.51e6 | 2.44e6 | 2.03e6 | inactive |
| CG7300 | DRSC28239 | 4.30e5 | 5.12e5 | 8.96e5 | 1.64e6 | inactive |
| mRpS25 (mitochondrial ribosomal protein S25) | DRSC19598 | 5.38e5 | 4.94e5 | 4.19e6 | 3.53e6 | inactive |
| CG7668 | DRSC10901 | 63058 | 51210 | 7.71e5 | 4.60e5 | inactive |
| Inos (myo-inositol-1-phosphate synthase) | DRSC07655 | 2.10e5 | 2.14e5 | 1.23e6 | 7.61e5 | inactive |
| Inos (myo-inositol-1-phosphate synthase) | DRSC27019 | 3.65e5 | 3.05e5 | 6.17e5 | 4.10e5 | inactive |
| CG11037 | DRSC11631 | 2.04e5 | 2.37e5 | 2.13e6 | 2.53e6 | inactive |
| Ir64a (Ionotropic receptor 64a) | DRSC09759 | 37034 | 49972 | 9.36e5 | 1.32e6 | inactive |
| Ir64a (Ionotropic receptor 64a) | DRSC09760 | 1.51e5 | 1.45e5 | 1.60e6 | 1.29e6 | inactive |
| CG34250 | DRSC38751 | 1.01e6 | 5.96e5 | 1.96e6 | 1.53e6 | inactive |
| Gyc76C + CG42637 | DRSC11180 | 33622 | 15008 | 2.67e5 | 1.12e5 | inactive |
| Gyc76C + CG42637 | DRSC39284 | – | – | – | – | inactive |
| Gyc76C + CG42637 | DRSC39320 | – | – | – | – | inactive |

No new results follow: an excerpt of the list.
| predicted target | amplicon | firefly reporter light, replicate 1 | firefly reporter light, replicate 2 | Renilla control light, replicate 1 | Renilla control light, replicate 2 | call |
| --- | --- | --- | --- | --- | --- | --- |
| mtm (myotubularin) | DRSC36764 | – | – | – | – | inactive |
| mtm (myotubularin) | DRSC36765 | – | – | – | – | inactive |
| Gadd45 (Growth arrest and DNA damage-inducible 45) | DRSC06033 | 3.12e5 | 2.21e5 | 1.66e6 | 1.61e6 | inactive |
| CG13070 | DRSC09953 | 2.55e5 | 2.04e5 | 2.52e6 | 1.99e6 | inactive |
| Atet (ABC transporter expressed in trachea) | DRSC00263 | 92503 | 94009 | 8.47e5 | 6.10e5 | inactive |
| Nepl11 (Neprilysin-like 11) | DRSC12333 | 3.67e5 | 3.20e5 | 2.59e6 | 2.60e6 | inactive |
| Nnf1b | DRSC22080 | 6.74e5 | 6.72e5 | 2.30e6 | 2.80e6 | inactive |
| Nnf1b | DRSC25920 | 4.62e5 | 3.57e5 | 1.15e6 | 9.90e5 | inactive |
